Some of the results follow.
How the values were obtained:
Experiment in all cases: log2 fold change, soluble protein after heating vs DMSO (PISA); higher = thermal stabilisation; K562 lysate, 10 uM; active = over 0.2 and 3.5 SD of the protein, either way, in both replicates (recomputed)
erlotinib = compound: C#Cc1cccc(Nc2ncnc3cc(OCCOC)c(OCCOC)cc23)c1 [erlotinib]
How it was run: (§1)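 Pellets of K562 cells were dounce-homogenised in PBS pH 7.4 with 1 mM MgCl2, and the crude extract was held at 1 mg/mL protein for a 30 min treatment with 10 μM compound. Aliquots were heated for 3 min over 48°C-58°C and pooled before NP-40 was added to 0.5% at 4°C. The supernatant from 21,000xg for 90 min was quantified by TMTpro 16plex LC-MS/MS with channel sums equalised. Values are reported from duplicates as log-two fold change in thermal stability relative to solvent controls.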

Sequences of proteins named here, by UniProt entry; tags and fusion partners are left off. A change or cut given only in a name is not applied to a line headed by its entry.
UniProt P61758, whole entry, looked up: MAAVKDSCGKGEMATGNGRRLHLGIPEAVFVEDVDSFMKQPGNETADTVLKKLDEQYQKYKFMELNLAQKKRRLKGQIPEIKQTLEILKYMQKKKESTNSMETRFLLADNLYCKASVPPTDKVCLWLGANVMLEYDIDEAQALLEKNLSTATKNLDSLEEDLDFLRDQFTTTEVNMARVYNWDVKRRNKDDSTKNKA
UniProt Q14694, whole entry, looked up: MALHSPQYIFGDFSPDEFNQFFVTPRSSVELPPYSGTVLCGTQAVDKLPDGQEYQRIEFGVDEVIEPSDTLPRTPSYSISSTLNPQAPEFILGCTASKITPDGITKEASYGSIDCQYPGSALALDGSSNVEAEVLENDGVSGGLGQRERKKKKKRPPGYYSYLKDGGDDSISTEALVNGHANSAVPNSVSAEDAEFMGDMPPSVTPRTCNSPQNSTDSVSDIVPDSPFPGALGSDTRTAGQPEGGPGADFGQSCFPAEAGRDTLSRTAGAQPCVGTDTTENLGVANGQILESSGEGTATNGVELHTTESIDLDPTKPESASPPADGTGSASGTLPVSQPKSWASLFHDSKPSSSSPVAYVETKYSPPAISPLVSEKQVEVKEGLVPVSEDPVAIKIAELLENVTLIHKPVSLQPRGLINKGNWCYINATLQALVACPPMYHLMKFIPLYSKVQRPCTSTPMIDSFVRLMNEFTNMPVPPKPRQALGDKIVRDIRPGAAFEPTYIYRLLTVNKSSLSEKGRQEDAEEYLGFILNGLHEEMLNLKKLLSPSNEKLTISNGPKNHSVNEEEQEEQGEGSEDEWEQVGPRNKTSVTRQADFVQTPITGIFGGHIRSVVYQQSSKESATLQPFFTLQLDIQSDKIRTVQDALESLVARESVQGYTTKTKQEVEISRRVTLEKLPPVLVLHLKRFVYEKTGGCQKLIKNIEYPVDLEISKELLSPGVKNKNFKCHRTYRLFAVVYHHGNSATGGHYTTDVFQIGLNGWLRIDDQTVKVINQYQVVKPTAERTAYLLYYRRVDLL
UniProt Q16851: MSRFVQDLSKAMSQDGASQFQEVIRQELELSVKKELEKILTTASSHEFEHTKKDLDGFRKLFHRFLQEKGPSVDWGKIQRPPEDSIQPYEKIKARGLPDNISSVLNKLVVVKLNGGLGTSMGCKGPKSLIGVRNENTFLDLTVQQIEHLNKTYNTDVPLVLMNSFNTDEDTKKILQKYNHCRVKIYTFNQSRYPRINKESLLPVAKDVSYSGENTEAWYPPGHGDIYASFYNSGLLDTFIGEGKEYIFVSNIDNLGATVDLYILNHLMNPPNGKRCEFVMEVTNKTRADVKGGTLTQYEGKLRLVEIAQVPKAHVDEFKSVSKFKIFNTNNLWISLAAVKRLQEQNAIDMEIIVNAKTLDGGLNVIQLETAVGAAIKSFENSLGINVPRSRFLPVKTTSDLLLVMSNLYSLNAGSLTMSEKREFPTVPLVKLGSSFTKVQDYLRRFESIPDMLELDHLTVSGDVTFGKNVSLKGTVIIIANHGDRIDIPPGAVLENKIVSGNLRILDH
UniProt Q9P2Y5: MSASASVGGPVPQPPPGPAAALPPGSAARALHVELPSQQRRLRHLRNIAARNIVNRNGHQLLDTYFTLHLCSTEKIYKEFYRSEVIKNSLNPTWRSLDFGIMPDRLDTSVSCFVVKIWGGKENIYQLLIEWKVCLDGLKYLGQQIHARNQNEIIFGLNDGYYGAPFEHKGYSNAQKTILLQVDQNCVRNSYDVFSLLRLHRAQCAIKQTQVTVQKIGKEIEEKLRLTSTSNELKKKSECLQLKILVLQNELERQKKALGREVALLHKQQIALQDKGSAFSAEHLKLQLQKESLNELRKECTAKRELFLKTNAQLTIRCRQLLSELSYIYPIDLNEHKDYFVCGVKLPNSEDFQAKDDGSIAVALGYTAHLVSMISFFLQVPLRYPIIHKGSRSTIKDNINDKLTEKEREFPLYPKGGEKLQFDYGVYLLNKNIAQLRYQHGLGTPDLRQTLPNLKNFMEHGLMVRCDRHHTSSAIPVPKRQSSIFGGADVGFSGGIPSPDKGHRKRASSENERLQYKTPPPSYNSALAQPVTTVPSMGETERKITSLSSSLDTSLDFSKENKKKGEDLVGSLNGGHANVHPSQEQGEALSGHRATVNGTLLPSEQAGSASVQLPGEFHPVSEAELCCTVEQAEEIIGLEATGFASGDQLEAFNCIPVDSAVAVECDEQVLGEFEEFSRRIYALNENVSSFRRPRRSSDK
UniProt P08670, whole entry, looked up: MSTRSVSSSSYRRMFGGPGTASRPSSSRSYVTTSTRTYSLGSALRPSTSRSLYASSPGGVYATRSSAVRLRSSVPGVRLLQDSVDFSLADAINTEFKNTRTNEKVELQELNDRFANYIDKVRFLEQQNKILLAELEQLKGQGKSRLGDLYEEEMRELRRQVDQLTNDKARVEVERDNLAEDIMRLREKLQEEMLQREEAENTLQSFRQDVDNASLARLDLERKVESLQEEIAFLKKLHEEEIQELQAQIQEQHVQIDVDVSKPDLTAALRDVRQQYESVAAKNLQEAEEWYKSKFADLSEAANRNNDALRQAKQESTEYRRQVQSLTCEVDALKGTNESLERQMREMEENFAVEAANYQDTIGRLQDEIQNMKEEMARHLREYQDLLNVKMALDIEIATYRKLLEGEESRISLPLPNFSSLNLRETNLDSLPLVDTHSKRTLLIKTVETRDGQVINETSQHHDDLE
UniProt P14927: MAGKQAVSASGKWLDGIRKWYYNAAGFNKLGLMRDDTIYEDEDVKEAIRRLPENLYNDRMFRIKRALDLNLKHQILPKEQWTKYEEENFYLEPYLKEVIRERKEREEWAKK
UniProt O94782: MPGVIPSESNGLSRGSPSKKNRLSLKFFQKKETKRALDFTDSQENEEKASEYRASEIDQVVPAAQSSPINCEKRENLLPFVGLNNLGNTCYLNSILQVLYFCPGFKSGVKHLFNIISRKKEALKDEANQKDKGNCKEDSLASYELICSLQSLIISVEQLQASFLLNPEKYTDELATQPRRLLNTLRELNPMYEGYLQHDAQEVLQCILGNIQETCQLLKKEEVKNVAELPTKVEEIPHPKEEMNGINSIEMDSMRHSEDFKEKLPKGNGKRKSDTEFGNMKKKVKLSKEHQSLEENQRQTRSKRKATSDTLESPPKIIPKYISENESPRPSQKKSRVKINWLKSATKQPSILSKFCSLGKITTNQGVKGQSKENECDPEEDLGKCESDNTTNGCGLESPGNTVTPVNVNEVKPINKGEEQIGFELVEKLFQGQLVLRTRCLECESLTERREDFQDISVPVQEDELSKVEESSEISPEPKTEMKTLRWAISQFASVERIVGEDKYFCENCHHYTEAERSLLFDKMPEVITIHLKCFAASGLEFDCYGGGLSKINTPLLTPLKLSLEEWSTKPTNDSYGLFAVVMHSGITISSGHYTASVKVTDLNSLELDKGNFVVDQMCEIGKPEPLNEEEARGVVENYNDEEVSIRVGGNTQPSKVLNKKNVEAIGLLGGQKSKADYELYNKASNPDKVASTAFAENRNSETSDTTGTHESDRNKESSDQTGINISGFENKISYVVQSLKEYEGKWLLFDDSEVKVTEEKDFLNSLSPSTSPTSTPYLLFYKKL
UniProt Q70J99: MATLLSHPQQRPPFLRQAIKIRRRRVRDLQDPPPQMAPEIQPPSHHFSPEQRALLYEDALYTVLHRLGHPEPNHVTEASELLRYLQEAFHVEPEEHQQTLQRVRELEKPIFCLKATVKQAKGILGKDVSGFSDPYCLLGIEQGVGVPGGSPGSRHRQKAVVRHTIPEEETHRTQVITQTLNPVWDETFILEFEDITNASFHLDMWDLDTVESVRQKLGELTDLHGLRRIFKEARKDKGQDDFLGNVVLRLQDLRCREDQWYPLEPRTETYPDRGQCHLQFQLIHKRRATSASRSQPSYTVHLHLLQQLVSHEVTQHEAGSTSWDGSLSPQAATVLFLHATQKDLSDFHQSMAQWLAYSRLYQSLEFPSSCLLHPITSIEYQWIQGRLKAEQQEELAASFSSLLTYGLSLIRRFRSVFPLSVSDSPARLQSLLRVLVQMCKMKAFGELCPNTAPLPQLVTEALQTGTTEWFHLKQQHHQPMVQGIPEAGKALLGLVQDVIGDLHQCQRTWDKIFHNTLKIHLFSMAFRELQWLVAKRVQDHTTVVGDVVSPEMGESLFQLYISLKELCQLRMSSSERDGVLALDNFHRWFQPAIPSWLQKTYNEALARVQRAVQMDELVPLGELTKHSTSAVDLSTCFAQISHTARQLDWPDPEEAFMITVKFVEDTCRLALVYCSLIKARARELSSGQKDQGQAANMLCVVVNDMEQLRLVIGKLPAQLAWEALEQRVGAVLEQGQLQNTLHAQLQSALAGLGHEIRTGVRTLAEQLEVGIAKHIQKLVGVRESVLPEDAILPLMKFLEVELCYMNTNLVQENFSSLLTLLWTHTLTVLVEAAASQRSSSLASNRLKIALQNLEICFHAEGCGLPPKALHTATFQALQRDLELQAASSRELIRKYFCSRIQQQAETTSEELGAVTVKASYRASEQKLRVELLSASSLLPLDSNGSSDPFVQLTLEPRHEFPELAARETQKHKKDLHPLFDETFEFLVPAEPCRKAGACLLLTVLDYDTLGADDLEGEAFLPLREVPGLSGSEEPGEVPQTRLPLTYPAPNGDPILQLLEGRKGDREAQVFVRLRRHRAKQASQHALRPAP
UniProt Q53GS9: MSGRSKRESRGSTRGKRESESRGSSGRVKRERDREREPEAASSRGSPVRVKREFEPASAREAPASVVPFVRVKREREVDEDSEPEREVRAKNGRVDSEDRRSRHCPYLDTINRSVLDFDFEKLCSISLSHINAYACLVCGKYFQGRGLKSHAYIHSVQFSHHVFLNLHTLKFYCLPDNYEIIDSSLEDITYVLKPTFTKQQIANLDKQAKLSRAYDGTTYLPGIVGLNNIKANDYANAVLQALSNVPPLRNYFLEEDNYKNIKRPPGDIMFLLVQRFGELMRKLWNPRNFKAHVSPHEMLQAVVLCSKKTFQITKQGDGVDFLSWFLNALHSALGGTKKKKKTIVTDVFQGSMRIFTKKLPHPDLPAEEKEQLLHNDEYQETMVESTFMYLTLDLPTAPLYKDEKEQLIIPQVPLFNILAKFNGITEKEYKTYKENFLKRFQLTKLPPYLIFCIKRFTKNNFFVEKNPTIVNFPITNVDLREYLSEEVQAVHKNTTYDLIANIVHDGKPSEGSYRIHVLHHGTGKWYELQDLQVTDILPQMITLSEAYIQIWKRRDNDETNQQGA
UniProt Q9HAU5: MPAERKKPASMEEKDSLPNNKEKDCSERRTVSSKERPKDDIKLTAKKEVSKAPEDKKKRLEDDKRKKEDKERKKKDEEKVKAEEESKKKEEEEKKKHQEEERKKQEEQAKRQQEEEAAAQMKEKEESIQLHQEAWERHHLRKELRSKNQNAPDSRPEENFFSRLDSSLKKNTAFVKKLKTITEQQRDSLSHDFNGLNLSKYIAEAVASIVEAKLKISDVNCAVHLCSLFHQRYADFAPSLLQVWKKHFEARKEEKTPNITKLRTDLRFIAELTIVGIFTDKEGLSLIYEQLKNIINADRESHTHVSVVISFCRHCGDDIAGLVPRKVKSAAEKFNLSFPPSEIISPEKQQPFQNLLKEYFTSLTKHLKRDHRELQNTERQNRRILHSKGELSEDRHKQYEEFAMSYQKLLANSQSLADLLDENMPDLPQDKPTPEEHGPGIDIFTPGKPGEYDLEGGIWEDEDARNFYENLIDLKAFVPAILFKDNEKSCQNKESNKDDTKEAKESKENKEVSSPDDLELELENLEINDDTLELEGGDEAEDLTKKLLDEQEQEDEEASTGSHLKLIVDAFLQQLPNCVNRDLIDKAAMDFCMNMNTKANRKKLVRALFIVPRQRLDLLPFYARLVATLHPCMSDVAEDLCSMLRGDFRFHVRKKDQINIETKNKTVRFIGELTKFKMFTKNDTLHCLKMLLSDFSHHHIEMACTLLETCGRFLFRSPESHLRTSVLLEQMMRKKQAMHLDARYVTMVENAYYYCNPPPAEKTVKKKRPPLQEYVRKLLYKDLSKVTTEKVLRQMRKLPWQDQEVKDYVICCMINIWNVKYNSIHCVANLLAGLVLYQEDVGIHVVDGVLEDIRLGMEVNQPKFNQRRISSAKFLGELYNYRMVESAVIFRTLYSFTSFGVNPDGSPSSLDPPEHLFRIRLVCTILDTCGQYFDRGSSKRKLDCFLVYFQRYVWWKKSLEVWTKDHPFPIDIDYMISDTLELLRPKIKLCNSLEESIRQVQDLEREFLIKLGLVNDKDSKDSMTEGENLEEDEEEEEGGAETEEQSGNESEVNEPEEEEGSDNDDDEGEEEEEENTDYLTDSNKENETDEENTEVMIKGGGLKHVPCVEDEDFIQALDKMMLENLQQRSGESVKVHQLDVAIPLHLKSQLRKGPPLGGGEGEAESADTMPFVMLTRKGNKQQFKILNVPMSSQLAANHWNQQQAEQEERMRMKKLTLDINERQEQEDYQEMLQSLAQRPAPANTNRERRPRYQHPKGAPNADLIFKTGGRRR

[1] = compound: C/C(=N\NC(=O)C1=CC(=CC=C1)S(=O)(=O)N2CCOCC2)/C3=C(C=CC(=C3)Cl)O
How it was run: as §1

[2] = compound: C1=CC(=CC=C1C2=NC3=C(N2)C=C(C=C3)C(=O)N)OC4=CC=C(C=C4)Cl
How it was run: as §1

[3] = compound: C1=CC2=C(C=CC(=C2)/C=C\3/C(=O)NC(=NCC4=CC=CS4)S3)N=C1
How it was run: as §1

[4] = compound: C1=CC2=NC=CN=C2C=C1/C=C/3\C(=O)NC(=O)S3
How it was run: as §1

[5] = compound: C1=CC=C(C=C1)C2=NC(=C(N2)C3=CC=NC=C3)C4=CC(=C(C=C4)Cl)O
How it was run: as §1

[6] = compound: C1=CC=C2C(=C1)C3=NNC4=CC=CC(=C43)C2=O
How it was run: as §1

[7] = compound: C1CCN(C1)C(=O)NC2=CC=CC(=C2)NC3=NC=C(C(=N3)NCCC4=CN=CN4)Br
How it was run: as §1

[8] = compound: C1CN(CCC1(CC2=CC=C(C=C2)Cl)N)C3=NC=NC4=C3C=CN4
How it was run: as §1

IRAK-1-4 Inhibitor I = compound: C1COCCN1CCN2C3=CC=CC=C3N=C2NC(=O)C4=CC(=CC=C4)[N+](=O)[O-] [IRAK-1-4 Inhibitor I]
How it was run: as §1

ibrutinib = compound: C=CC(=O)N1CCC[C@@H](n2nc(-c3ccc(Oc4ccccc4)cc3)c3c(N)ncnc32)C1 [ibrutinib]
How it was run: as §1

[9] = compound: CC(=O)c1cnc2ccc(-c3cc(Cl)c(O)c(Cl)c3)nc2c1N[C@H]1CC[C@H](CN(C)C)CC1
How it was run: as §1

ralimetinib = compound: CC(C)(C)Cn1c(N)nc2ccc(-c3[nH]c(C(C)(C)C)nc3-c3ccc(F)cc3)nc21 [ralimetinib]
How it was run: as §1

[10] = compound: CC(C)(O)CC(=O)NCCn1ccc2ncnc(Nc3ccc(Oc4cccc(C(F)(F)F)c4)c(Cl)c3)c21
How it was run: as §1

[11] = compound: CC(C)C1=C2N=C(C=C(N2N=C1)NCC3=CC=CC=C3)NCCCCCCN
How it was run: as §1

[12] = compound: CC1=C(C(CC(=O)N1)C2=CC=C(C=C2)C(F)(F)F)C(=O)NC3=C(C=C4C(=C3)C=NN4)F
How it was run: as §1

[13] = compound: CC1=C(C2=C(C=C1)C(=O)C3=CC=CC=C3N2CCCN)C
How it was run: as §1

[14] = compound: CC1=C(C=C(C=C1)NC(=O)C2=CC(=CC=C2)C(C)(C)C#N)NC3=CC4=C(C=C3)N=CN(C4=O)C
How it was run: as §1

[15] = compound: CC1=C(C=C(C=C1)NC(=O)C2=CC(=CC=C2)N(C)C)NC(=O)C3=CC=C(C=C3)O
How it was run: as §1

[16] = compound: CC1=CC=C(C=C1)SC2=C3C=C(SC3=CN=C2)C(=O)N
How it was run: as §1

Measured: log2 fold change

VBP1 (UniProt P61758)
inactive: erlotinib 0.01 | [1] 0.003 | [2] -0.009 | [3] -0.023 | [4] -0.018 | [5] 0 | [6] -0.002 | [7] 0.004 | [8] -0.011 | IRAK-1-4 Inhibitor I -0.009 | ibrutinib -0.015 | [9] -0.008 | ralimetinib 0.005 | [10] 0.014 | [11] -0.017 | [12] -0.035 | [13] -0.007 | [14] 0.008 | [15] -0.014 | [16] -0.014

USP10 isoform 2 (UniProt Q14694)
inactive: erlotinib 0.022 | [1] -0.032 | [2] 0.01 | [3] 0.007 | [4] -0.017 | [5] 0.023 | [6] -0.028 | [7] -0.033 | [8] -0.034 | IRAK-1-4 Inhibitor I -0.005 | ibrutinib -0.038 | [9] 0.001 | ralimetinib -0.019 | [10] -0.014 | [11] -0.006 | [12] -0.025 | [13] 0.018 | [14] 0.003 | [15] 0.018 | [16] 0.008

USP24 (UniProt Q9UPU5)
inactive: erlotinib -0.004 | [1] 0.012 | [2] -0.014 | [3] 0.022 | [4] 0.006 | [5] -0.021 | [6] -0.032 | [7] -0.016 | [8] 0 | IRAK-1-4 Inhibitor I -0.017 | ibrutinib -0.01 | [9] 0.009 | ralimetinib 0.02 | [10] -0.002 | [11] -0.031 | [12] 0.013 | [13] 0.029 | [14] -0.008 | [15] 0.009 | [16] 0.016

USF1 (UniProt P22415)
inactive: erlotinib -0.027 | [1] -0.007 | [2] -0.014 | [3] 0.016 | [4] -0.03 | [5] -0.076 | [6] -0.102 | [7] -0.033 | [8] -0.009 | IRAK-1-4 Inhibitor I 0.001 | ibrutinib 0.052 | [9] 0.005 | ralimetinib 0.12 | [10] 0.06 | [11] -0.007 | [12] 0.065 | [13] -0.059 | [14] -0.043 | [15] -0.089 | [16] -0.019

UGP2 (UniProt Q16851)
inactive: erlotinib -0.01 | [1] 0.033 | [2] 0.001 | [3] -0.023 | [4] 0.003 | [5] -0.009 | [6] -0.007 | [7] 0.003 | [8] -0.018 | IRAK-1-4 Inhibitor I 0.012 | ibrutinib -0.021 | [9] -0.007 | ralimetinib -0.008 | [10] -0.018 | [11] -0.007 | [12] -0.016 | [13] -0.006 | [14] 0 | [15] -0.014 | [16] 0

USP19 isoform 6 (UniProt O94966)
inactive: erlotinib -0.003 | [1] 0.021 | [2] 0.016 | [3] -0.033 | [4] 0.049 | [5] 0.012 | [6] -0.012 | [7] -0.011 | [8] -0.001 | IRAK-1-4 Inhibitor I 0.029 | ibrutinib 0.016 | [9] 0 | ralimetinib 0.023 | [10] -0.042 | [11] -0.003 | [12] 0.015 | [13] 0.009 | [14] -0.008 | [15] -0.015 | [16] -0.001

UVRAG (UniProt Q9P2Y5)
inactive: erlotinib -0.003 | [1] -0.072 | [2] -0.05 | [3] 0.034 | [4] 0.044 | [5] -0.035 | [6] 0.012 | [7] -0.051 | [8] 0.024 | IRAK-1-4 Inhibitor I 0.041 | ibrutinib -0.05 | [9] 0.016 | ralimetinib -0.048 | [10] -0.003 | [11] -0.01 | [12] 0.04 | [13] 0.033 | [14] -0.009 | [15] 0.015 | [16] -0.045

UPF3B (UniProt Q9BZI7)
inactive: erlotinib -0.026 | [1] -0.109 | [2] 0.042 | [3] 0.02 | [4] -0.005 | [5] 0.017 | [6] -0.014 | [7] -0.018 | [8] -0.008 | IRAK-1-4 Inhibitor I 0.008 | ibrutinib -0.011 | [9] 0.024 | ralimetinib 0.007 | [10] -0.006 | [11] -0.021 | [12] 0.018 | [13] -0.04 | [14] 0.008 | [15] -0.001 | [16] -0.003

VIM (UniProt P08670)
inactive: erlotinib 0.003 | [1] 0.019 | [2] 0.007 | [3] -0.026 | [4] -0.001 | [5] -0.009 | [6] -0.005 | [7] 0.063 | [8] 0.024 | IRAK-1-4 Inhibitor I -0.01 | ibrutinib 0.006 | [9] 0.004 | ralimetinib 0.004 | [10] 0.005 | [11] -0.003 | [12] -0.007 | [13] 0.032 | [14] -0.02 | [15] -0.007 | [16] -0.012

UFD1 isoform 1 (UniProt Q92890)
inactive: erlotinib -0.027 | [1] 0.052 | [2] 0.025 | [3] -0.023 | [4] 0.005 | [5] 0.018 | [6] 0.042 | [7] 0.013 | [8] 0.009 | IRAK-1-4 Inhibitor I 0.025 | ibrutinib 0.004 | [9] 0.01 | ralimetinib 0.021 | [10] -0.003 | [11] -0.018 | [12] 0.008 | [13] -0.035 | [14] 0.049 | [15] -0.041 | [16] -0.027

UQCRB (UniProt P14927)
inactive: erlotinib -0.006 | [1] -0.032 | [2] 0.007 | [3] -0.019 | [4] -0.001 | [5] 0.001 | [6] 0.037 | [7] 0.005 | [8] 0.032 | IRAK-1-4 Inhibitor I -0.007 | ibrutinib 0.098 | [9] -0.024 | ralimetinib -0.002 | [10] -0.052 | [11] 0.015 | [12] -0.013 | [13] -0.007 | [14] 0.021 | [15] 0.014 | [16] -0.018

3 neighbouring entries out of the list so far, for reference:
UPF3B (UniProt Q9BZI7)
inactive: erlotinib -0.026 | [1] -0.109 | [2] 0.042 | [3] 0.02 | [4] -0.005 | [5] 0.017 | [6] -0.014 | [7] -0.018 | [8] -0.008 | IRAK-1-4 Inhibitor I 0.008 | ibrutinib -0.011 | [9] 0.024 | ralimetinib 0.007 | [10] -0.006 | [11] -0.021 | [12] 0.018 | [13] -0.04 | [14] 0.008 | [15] -0.001 | [16] -0.003

VIM (UniProt P08670)
inactive: erlotinib 0.003 | [1] 0.019 | [2] 0.007 | [3] -0.026 | [4] -0.001 | [5] -0.009 | [6] -0.005 | [7] 0.063 | [8] 0.024 | IRAK-1-4 Inhibitor I -0.01 | ibrutinib 0.006 | [9] 0.004 | ralimetinib 0.004 | [10] 0.005 | [11] -0.003 | [12] -0.007 | [13] 0.032 | [14] -0.02 | [15] -0.007 | [16] -0.012

UFD1 isoform 1 (UniProt Q92890)
inactive: erlotinib -0.027 | [1] 0.052 | [2] 0.025 | [3] -0.023 | [4] 0.005 | [5] 0.018 | [6] 0.042 | [7] 0.013 | [8] 0.009 | IRAK-1-4 Inhibitor I 0.025 | ibrutinib 0.004 | [9] 0.01 | ralimetinib 0.021 | [10] -0.003 | [11] -0.018 | [12] 0.008 | [13] -0.035 | [14] 0.049 | [15] -0.041 | [16] -0.027

Next part.

USP1 (UniProt O94782)
inactive: erlotinib 0.013 | [1] 0.017 | [2] 0.027 | [3] 0.007 | [4] -0.012 | [5] -0.013 | [6] 0.018 | [7] 0.002 | [8] 0.01 | IRAK-1-4 Inhibitor I 0.013 | ibrutinib 0.018 | [9] 0.011 | ralimetinib 0.04 | [10] 0.007 | [11] -0.001 | [12] -0.023 | [13] -0.029 | [14] 0.006 | [15] 0.043 | [16] -0.06

USO1 (UniProt O60763)
inactive: erlotinib -0.074 | [1] 0.219 | [2] 0.089 | [3] 0.029 | [4] -0.342 | [5] -0.02 | [6] 0.015 | [7] 0.08 | [8] -0.059 | IRAK-1-4 Inhibitor I 0.078 | ibrutinib -0.06 | [9] -0.008 | ralimetinib -0.203 | [10] 0.155 | [11] 0.053 | [12] 0.013 | [13] 0.075 | [14] -0.021 | [15] 0.089 | [16] 0.062

UNC13D (UniProt Q70J99)
inactive: erlotinib 0.019 | [1] 0.023 | [2] -0.049 | [3] 0.02 | [4] 0.025 | [5] -0.007 | [6] -0.009 | [7] 0.005 | [8] 0.013 | IRAK-1-4 Inhibitor I 0.022 | ibrutinib -0.043 | [9] -0.005 | ralimetinib 0.031 | [10] -0.014 | [11] 0.018 | [12] 0.016 | [13] 0.015 | [14] 0.012 | [15] 0.025 | [16] -0.015

USP39 (UniProt Q53GS9)
inactive: erlotinib -0.001 | [1] 0.009 | [2] -0.004 | [3] -0.018 | [4] -0.027 | [5] -0.016 | [6] -0.007 | [7] -0.001 | [8] 0.012 | IRAK-1-4 Inhibitor I 0.005 | ibrutinib -0.023 | [9] -0.009 | ralimetinib 0.025 | [10] -0.046 | [11] 0.011 | [12] -0.013 | [13] 0.03 | [14] 0 | [15] 0.021 | [16] -0.009

UPF2 (UniProt Q9HAU5)
inactive: erlotinib -0.002 | [1] 0.03 | [2] -0.006 | [3] 0.005 | [4] 0 | [5] 0.001 | [6] -0.006 | [7] 0 | [8] -0.003 | IRAK-1-4 Inhibitor I 0.011 | ibrutinib 0.006 | [9] 0.026 | ralimetinib 0.002 | [10] -0.01 | [11] 0.038 | [12] 0.007 | [13] -0.045 | [14] -0.004 | [15] 0.021 | [16] 0.043
